Screen size: about 390,000 compounds; about 910 (0.23%) were called active. Inconclusive results, whose numbers are uncertain, are shown with a selection of clear calls. Calls follow the shape of the dose curve; as a rule, active = well fitted inhibition curve with a large enough effect; inconclusive = small, poorly fitted or top-dose-only effect; inactive = no such curve, though single readings can be large or run the other way. Potencies beside an inconclusive call are fits to weak or partial responses and may not hold up.
What follows are molecules tested against Ubiquitin carboxyl-terminal hydrolase 1 (Homo sapiens) (UniProt O94782) (assay: Inhibitors of USP1/UAF1: Primary Screen). Conditions: recombinant USP1/UAF1, Ub-Rhodamine cleavage fluorescence; activity change, negative = inhibition: at 57.1 µM (top of the series).
Source text: Deubiquitinating enzymes (DUBs) are a class of enzymes that can cleave isopeptide bond formed between the C-terminal carboxylate of ubiquitin and a lysine side-chain amino group on the target protein. Among them, ubiquitin specific proteases (USPs) constitute the largest DUB family. Human USPs are emerging as promising targets for pharmacological intervention because of their connection to a number of human diseases, including prostate, colon and breast cancer (1, 2), pediatric acute lymphoblastic leukemia (3), and familial cylindromatosis (4). The advantage of inhibiting USPs lies in the potential specificity of therapeutic intervention that can lead to better efficacy and reduce nonspecific side effects. In a collaboration between the University of Delaware and the NIH Chemical Genomics Center, a high-throughput screen assay was developed to screen for USP1/UAF1 inhibitors. This miniaturized assay has a fluorescent read-out and is used to screen the NIH Molecular Libraries Small Molecule Repository (MLSMR) in order to identify a small molecule that inhibits USP1. NIH Chemical Genomics Center [NCGC] NIH Molecular Libraries Probe Centers Network [MLPCN] MLPCN Grant: DA030552 Assay Submitter (PI): Zhihao Zhuang, University of Delaware 1. Priolo, C., et al. (2006) The isopeptidase USP2a protects human prostate cancer from apoptosis. Cancer Res 66, 8625-8632 2. Popov, N., et al. (2007) The ubiquitin-specific protease USP28 is required for MYC stability. Nat Cell Biol 9, 765-774 3. De Pitta, C., et al. (2005) A leukemia-enriched cDNA microarray platform identifies new transcripts with relevance to the biology of pediatric acute lymphoblastic leukemia. Haematologica 90, 890-898 4. Kovalenko, A., et al. (2003) The tumour suppressor CYLD negatively regulates NF-kappaB signalling by deubiquitination. Nature 424, 801-805
3 microliters of reagents (buffer in columns 3 and 4 as negative control and 1nM USP1/UAF1 complex in columns 1, 2, and 5-48) are dispensed into Greiner black solid bottom 1536-well assay plates. Compounds are then transferred via Kalypsys pin tool equipped with 1536-pin array (10nl slotted pins, V&P Scientific, San Diego, CA). Following an incubation step of 15 min at room temperature, 1ul of Ub-Rho substrate (150nM final concentration) is added to initiate the reaction. The plates are immediately centrifuged at 1000 rpm for 15 seconds, and subsequently transferred to a ViewLux high-throughput CCD imager (PerkinElmer) wherein kinetic measurements of fluorescence are acquired using 480 nm excitation/540 nm emission filter set (6 reads every 60 seconds, see Table 1). All reagents are diluted in an assay buffer consisting of 50mM HEPES (pH 7.8), 0.5mM EDTA, 0.1 mg/ml BSA, 1mM TCEP, and 0.01% Tween-20.
% is scaled to controls: 0 for no effect and ±100 for the full control effect; potency is read from the fitted curve at half-maximal effect.
Also: nearly all actives have a fitted effect of over 60% in size.

Protein sequences, listed by entry. Tags and fused reporters are not part of them. Lines headed by an entry give the natural chain unless they say otherwise; changes in a name come on top.
UniProt O94782: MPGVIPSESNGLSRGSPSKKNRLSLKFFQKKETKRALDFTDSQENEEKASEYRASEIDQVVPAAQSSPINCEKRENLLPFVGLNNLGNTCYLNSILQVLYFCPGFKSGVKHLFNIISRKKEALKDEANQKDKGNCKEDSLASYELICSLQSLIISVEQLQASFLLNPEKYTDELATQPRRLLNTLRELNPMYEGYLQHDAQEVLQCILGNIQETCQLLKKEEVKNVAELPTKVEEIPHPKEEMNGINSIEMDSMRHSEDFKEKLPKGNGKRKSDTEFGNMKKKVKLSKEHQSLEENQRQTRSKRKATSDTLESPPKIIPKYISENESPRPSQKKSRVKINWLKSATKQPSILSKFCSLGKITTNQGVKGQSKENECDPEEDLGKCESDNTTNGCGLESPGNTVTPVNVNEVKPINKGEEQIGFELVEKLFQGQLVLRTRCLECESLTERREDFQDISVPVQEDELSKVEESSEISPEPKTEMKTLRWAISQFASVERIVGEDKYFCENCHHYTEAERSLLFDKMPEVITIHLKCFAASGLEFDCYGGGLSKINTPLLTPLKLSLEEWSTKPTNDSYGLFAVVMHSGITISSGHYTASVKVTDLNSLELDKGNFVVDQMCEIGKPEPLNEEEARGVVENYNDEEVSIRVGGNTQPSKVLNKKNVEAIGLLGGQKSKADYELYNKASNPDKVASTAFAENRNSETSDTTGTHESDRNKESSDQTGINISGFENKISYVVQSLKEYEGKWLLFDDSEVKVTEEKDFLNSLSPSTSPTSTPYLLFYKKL

Compound | Potency | activity change, negative = inhibition
Cc1ccn2c(=S)[nH]nc2c1 | inconclusive: 10 µM [inhibitor, partial curve, poor fit] | –
COc1ccc(-c2ccc(SCC(=O)N3CCOCC3)nn2)cc1 | inactive | –
CC1CCN(C(=O)c2cc3c(ccc4ccccc43)o2)CC1 | inconclusive: 31.6 µM [inhibitor, partial curve] | –
O=[N+]([O-])c1cc(Cl)ccc1-c1nc(-c2ccncc2)no1 | inactive | –
Cc1coc2cc3oc(=O)c(CCC(=O)N4CCCCC4)c(C)c3cc12 | inconclusive: 22.4 µM [inhibitor, partial curve] | –
CCN(CC)CCN(C(=O)c1ccc2c(c1)CCCC2)c1nc2c(OC)cccc2s1 | inconclusive: 0.251 µM [inhibitor, full curve, poor fit] | –
COc1ccc([C@H]2CC(=O)C=C(c3ccc(F)nc3)C2)cc1OC | inactive | –
NS(=O)(=O)c1ccc(CCNC(=O)C(=O)c2cn(CC(=O)N3CCOCC3)c3ccccc23)cc1 | inactive | –
COc1ccc2nc(SCC(=O)NC3CC3)c(C#N)cc2c1 | inconclusive: 7.08 µM [inhibitor, full curve, poor fit] | –
S=C(NCCN1CCOCC1)C(=S)NCCN1CCOCC1 | inconclusive: 56.2 µM [inhibitor, partial curve, poor fit] | –
Cc1ccc(O)c(N=CC2=C(O)c3ccccc3C2=O)c1 | inconclusive: 28.2 µM [inhibitor, partial curve] | –
COc1ccc(Cc2[nH]n3c(=O)cc(C)nc3c2-c2ccccc2)cc1 | inconclusive: 0.112 µM [inhibitor, full curve, poor fit] | –
O=C(CC1C[C@H](C(=O)N2CCOCC2)[C@@]2(CCC3CCCC3)c3[nH]c4ccccc4c3CCN2C1=O)NCC12CC3CC(CC(C3)C1)C2 (some centres not stated) | inconclusive: 50.1 µM [inhibitor, partial curve, poor fit] | –
CC1(C)CC(=O)C2=C(C1)c1c(ccc3ccccc13)NC2c1ccco1 (configuration not stated) | inactive | –
CCN(CC)C(=O)CSc1nc(-c2ccccc2)cc(-c2ccc(OC)cc2)c1C#N | inconclusive: 0.112 µM [inhibitor, full curve, poor fit] | –
CCOC(=O)[C@H]1[C@H]2COc3ccccc3[C@@H]2N2C(=O)c3ccc(Cl)cc3NC(=O)[C@@]12C | inconclusive: 39.8 µM [inhibitor, partial curve, poor fit] | –
CCOc1cc(C(=O)N2CCC(CC3CC(c4ccc(Cl)cc4)=NO3)(C(=O)NCC3CCCCC3)CC2)cc(OCC)c1OCC (configuration not stated) | inconclusive: 3.98 µM [inhibitor, full curve, poor fit] | –
CCN(CC)C(=O)Cn1ncc2c([nH]c3ccc(C)cc32)c1=O | inconclusive: 5.01 µM [inhibitor, partial curve] | –
CC1=Nc2cc(C(=O)NC3CCC(C)CC3)ccc2Sc2c(C)ccc(C)c21 (configuration not stated) | inconclusive: 251 µM [inhibitor, partial curve, poor fit] | –
COc1ccc(CCNCc2c(OC)ccc3ccccc23)cc1OC | inactive | –
CC(C)=CCC[C@](C)(O[C@@H]1O[C@H](CO[C@@H]2OC[C@@H](O)[C@H](O)[C@H]2O)[C@@H](O)[C@H](O)[C@H]1O)C1CC[C@]2(C)C1[C@H](O)CC1[C@@]3(C)CC[C@H](O[C@@H]4O[C@H](CO)[C@@H](O)[C@H](O)[C@H]4O)C(C)(C)C3CC[C@]12C (some centres not stated) | inconclusive: 8.91 µM [inhibitor, partial curve, poor fit] | –

Pulled one by one from the entries so far (three):
Compound | Potency | activity change, negative = inhibition
CCN(CC)C(=O)CSc1nc(-c2ccccc2)cc(-c2ccc(OC)cc2)c1C#N | inconclusive: 0.112 µM [inhibitor, full curve, poor fit] | –
COc1ccc2nc(SCC(=O)NC3CC3)c(C#N)cc2c1 | inconclusive: 7.08 µM [inhibitor, full curve, poor fit] | –
S=C(NCCN1CCOCC1)C(=S)NCCN1CCOCC1 | inconclusive: 56.2 µM [inhibitor, partial curve, poor fit] | –

Remaining list, next part.

Compound | Potency | activity change, negative = inhibition
CN(C(=O)c1ccco1)c1nc(-c2ccc(F)cc2)cs1 | inactive | –
COc1ccccc1N1CCN(/N=C/C=C/c2ccccc2[N+](=O)[O-])CC1 | inactive | –
O=C1NC(=S)S/C1=C\c1coc2ccc(O)cc2c1=O | inactive | –
CC(C)(C)c1ccc(OC(=O)c2cccnc2)cc1 | inactive | –
O=C1c2c(O)ccc(O)c2C(=O)c2c(NCCNCCO)ccc(NCCNCCO)c21 | inconclusive: 14.1 µM [inhibitor, partial curve] | –
COc1ccc(OC)c(NC(=O)c2oc3c(c2C)-c2nn(Cc4ccc(Cl)cc4)cc2CC3)c1 | inconclusive: 11.2 µM [inhibitor, partial curve, poor fit] | –
O=C(CN1CCC(O)(c2ccc3c(c2)OCO3)CC1)N1CCOCC1 | inactive | –
CCOC(=O)c1c(NC(=O)CSc2cn(CCNC(=O)c3ccc(OC)c(OC)c3)c3ccccc23)sc2c1CCC2 | inconclusive: 7.94 µM [inhibitor, partial curve] | –
Cc1ccc2occ(/C=N/NC(=O)c3ccccc3Br)c(=O)c2c1 | inactive | –
O=[N+]([O-])c1cc2c(c(CSc3ncccn3)c1)OCOC2 | inconclusive: 11.2 µM [inhibitor, partial curve, poor fit] | –
CCC(C)n1c(SCc2c(F)cccc2Cl)nc2ccsc2c1=O (configuration not stated) | inconclusive: 50.1 µM [inhibitor, partial curve, poor fit] | –
COc1cc(C(C)=O)ccc1OCc1cn(CC(=O)c2ccc(O)cc2)nn1 | inconclusive: 0.447 µM [inhibitor, full curve, poor fit] | –
C[C@H]1CN([C@@H](C)CO)C(=O)Cc2cc(NC(=O)CCC(F)(F)F)ccc2O[C@H]1CN(C)Cc1ccc(-c2ccccc2)cc1 | inconclusive: 31.6 µM [inhibitor, single point] | –
CC(=O)c1ccc(NC(=O)C(C)n2nc(-c3ccccc3)c3cc(Cl)ccc32)cc1 (configuration not stated) | inconclusive: 1.78 µM [inhibitor, partial curve] | –
CCN(CC)c1ccc(C=C2SC(=S)NC2=O)cc1 | inconclusive: 5.01 µM [inhibitor, partial curve] | –
COc1ccc(Br)c(C(=O)Nc2cc3c(cc2N2CCCCC2)n(C)c(=O)c(=O)n3C)c1 | inconclusive: 50.1 µM [inhibitor, single point] | –
CCCCN1C(=O)/C(=C2/Sc3ccccc3N2C)S/C1=N\c1ncn[nH]1 | inconclusive: 35.5 µM [inhibitor, partial curve] | –
Cc1cccc(C(=O)OCC(=O)N2CCCCCC2)c1C | – | inconclusive: -6.57% [inhibitor]
CC(C)(C)Cc1c(-c2ccc(F)cc2)nc2ccc(Cl)cn12 | inactive | –
Cc1ccc(N(CC(=O)N=Nc2c(O)[nH]c3ccccc23)S(C)(=O)=O)c(C)c1 | inconclusive: 44.7 µM [inhibitor, single point] | –
COc1cccc(C(=O)OCC(=O)NCC2CCCO2)c1 (configuration not stated) | inactive | –

Compound | Potency | activity change, negative = inhibition
O=C(CCc1cn(Cc2ccccc2Cl)c2ccccc12)NC1CCCCC1 | inconclusive: 39.8 µM [inhibitor, partial curve, poor fit] | –
Oc1c(C(c2ccccc2F)N2CCCCC2)sc2nc(-c3ccco3)nn12 (configuration not stated) | inactive | –
Cc1cccc(N2CCN(C(=O)c3cc(COc4ccc(F)c(F)c4)on3)CC2)n1 | inconclusive: 50.1 µM [inhibitor, partial curve] | –
CCC(C)N1C(=O)CCC1C(=O)NCc1ccc2c(c1)OCO2 (configuration not stated) | inconclusive: 0.708 µM [inhibitor, partial curve, poor fit] | –
CSc1ccc(CNC(=O)C2CCN(c3nnc(-n4cccc4CNc4ccc(C)cc4)s3)CC2)cc1 | inconclusive: 15.8 µM [inhibitor, partial curve] | –
O=S(=O)(Nc1cccc2cccnc12)c1ccccc1 | inactive | –
CN1CCN(C(=O)C2=C[C@H](c3csc4ccccc34)C[C@H](OCc3ccc(CO)cc3)O2)CC1 | inconclusive: 8.91 µM [inhibitor, full curve, poor fit] | –
COc1ccc(Cn2nnc3c(=O)[nH]c(C4CCCN(C(=O)c5ccccc5)C4)nc32)cc1 (configuration not stated) | inconclusive: 44.7 µM [inhibitor, partial curve, poor fit] | –
CCOC(=O)C1CCCN(c2c(Nc3ccc(OCC)cc3)c(=O)c2=O)C1 (configuration not stated) | inconclusive: 0.398 µM [inhibitor, full curve, poor fit] | –
CCOc1ccccc1NC(=O)Cn1c(=O)n(CCCC(=O)NCCc2ccc(C)cc2)c(=O)c2ccccc21 | inconclusive: 0.199 µM [inhibitor, full curve] | –
Cc1ccc(N2CC(NC(=O)c3ccc(S(=O)(=O)N4CCCC4)cc3)CC2=O)cc1 (configuration not stated) | inactive | –
O=C(COc1cccnc1[N+](=O)[O-])N1CCC(Cc2ccccc2)CC1 | inconclusive: 1 µM [inhibitor, partial curve] | –
O=C1NN(c2ccccc2)C(=O)/C1=C\c1ccc(-c2cc([N+](=O)[O-])ccc2O)o1 | inactive | –
COc1ccccc1CN1CC(C(=O)NCc2cc(F)cc(C(F)(F)F)c2)CCC1=O (configuration not stated) | inconclusive: 8.91 µM [inhibitor, partial curve, poor fit] | –
Cc1cccc(NC(=O)N2CC=C(c3c[nH]c4ccccc34)CC2)c1C | inconclusive: 44.7 µM [inhibitor, partial curve, poor fit] | –
CCOC(=O)N1CCN(Cc2nc(N)nc(Nc3ccc(Oc4ccccc4)cc3)n2)CC1 | inconclusive: 17.8 µM [inhibitor, partial curve] | –
Cc1ccc(-c2ccc(C(=O)NCc3ccc(Cl)cc3)o2)c2ccccc12 | inactive | –
O=C(NC(=S)Nc1ccc(Br)cn1)c1cccnc1 | inconclusive: 44.7 µM [inhibitor, partial curve, poor fit] | –
CSc1ccc(C2C(C#N)=C(N)Oc3c2ccc(=O)c2c(C)oc(C)c32)cc1 (configuration not stated) | inconclusive: 44.7 µM [inhibitor, partial curve, poor fit] | –
COC(=O)c1ccc(CSc2cc(C)c3cccc(C)c3n2)o1 | inconclusive: 44.7 µM [inhibitor, partial curve] | –

Source: PubChem BioAssay AID743255 (National Center for Advancing Translational Sciences (NCATS), 2014)
